Results reported in PubChem BioAssay AID488840 (Broad Institute, 2010).
The whole screen tested about 1,400 compounds, of which about 45 (3%) were called active.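 The calls were made as follows: active = half-maximal dose of signal decrease from fit no higher than ten times the top valid tested dose; inconclusive = fit invalid, or curve flat with 30 to 70% inhibition; inactive = the rest.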 The list shows a part of the results. Results with a measured potency or affinity are listed apart.

Amino acid sequences for entries named in this document (tags omitted). A change or cut given only in a name is not applied to a line headed by its entry.
UniProt O75164: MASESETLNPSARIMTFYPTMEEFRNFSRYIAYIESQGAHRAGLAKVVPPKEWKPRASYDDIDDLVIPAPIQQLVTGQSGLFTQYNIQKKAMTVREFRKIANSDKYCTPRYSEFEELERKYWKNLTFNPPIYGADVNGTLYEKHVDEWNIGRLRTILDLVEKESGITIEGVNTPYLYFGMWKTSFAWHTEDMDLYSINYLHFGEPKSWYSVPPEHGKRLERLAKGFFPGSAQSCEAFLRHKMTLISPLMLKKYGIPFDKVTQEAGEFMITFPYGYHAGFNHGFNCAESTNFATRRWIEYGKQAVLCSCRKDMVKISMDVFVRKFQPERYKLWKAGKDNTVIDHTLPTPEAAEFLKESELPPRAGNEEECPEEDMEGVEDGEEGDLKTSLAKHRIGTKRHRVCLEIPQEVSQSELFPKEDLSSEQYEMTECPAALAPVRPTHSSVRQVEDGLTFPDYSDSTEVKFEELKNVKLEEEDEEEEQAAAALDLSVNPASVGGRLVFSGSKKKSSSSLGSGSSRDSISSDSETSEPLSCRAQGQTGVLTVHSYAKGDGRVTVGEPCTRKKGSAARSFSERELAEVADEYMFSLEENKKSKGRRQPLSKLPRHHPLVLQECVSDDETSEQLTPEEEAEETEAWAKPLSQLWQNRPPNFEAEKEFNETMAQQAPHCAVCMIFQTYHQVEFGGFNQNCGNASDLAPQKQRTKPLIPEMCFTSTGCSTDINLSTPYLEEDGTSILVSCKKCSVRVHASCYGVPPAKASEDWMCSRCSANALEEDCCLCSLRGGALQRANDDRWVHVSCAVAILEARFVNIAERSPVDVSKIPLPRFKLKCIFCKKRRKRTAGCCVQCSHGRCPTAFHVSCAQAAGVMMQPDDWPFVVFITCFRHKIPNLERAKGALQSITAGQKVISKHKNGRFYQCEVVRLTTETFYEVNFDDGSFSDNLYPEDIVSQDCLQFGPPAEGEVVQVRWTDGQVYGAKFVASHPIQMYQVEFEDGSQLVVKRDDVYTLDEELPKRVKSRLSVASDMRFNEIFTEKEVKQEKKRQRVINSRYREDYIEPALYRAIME

molecular target: Lysine-specific demethylase 4A (Homo sapiens) (UniProt O75164); experiment: inhibition of JMJD2A H3K9me3 demethylation – biochemical, DELFIA europium, cherry-picked samples, selectivity assay for GASC-1 inhibitor project, dose response (AID 488840); details: GST-JMJD2A(1-420) H3K9me3 demethylation; at 6 µM (top of the series) unless noted;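 also: europium signal reports the dimethyl H3K9 product detected by antibody so inhibitors lower it; 0% = median of neutral control wells and -100% = median of positive control wells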

Activity change, negative = inhibition, inactive:
CC(C)(C)NNC(=S)Nc1cccc(C(F)(F)F)c1 -1.89%
CC[C@H]1CCCCc2ccccc2[C@@H](C(=O)C[C@@H](O)CC(C)=O)OC1=O 0.689%
COCCCNC(=S)NNC(=O)c1ccccn1 6.83%
COc1ccccc1/C=C/C(=O)Nc1ccc(N2CCOCC2)cc1 -5.29%
C[C@H]1CN([C@@H](C)CO)C(=O)c2cc(NS(=O)(=O)c3ccc(Cl)cc3)ccc2O[C@@H]1CN(C)CC1CCCCC1 1.27%
Cc1[nH]n2c(=O)c3c(nc2c1-c1ccccc1)CCCC3 5.6%
CC(C)(C)c1ccc(S(=O)(=O)/N=C2\C=C(NS(=O)(=O)c3ccccc3)C(=O)c3ccccc32)cc1 2.09%
CCC(C)(C(=O)NC1CCCC1)N(Cc1cccs1)C(C)=O (configuration not stated) 4.25%
CCOc1ccc(C(=O)Nc2nnc(C(C)C)s2)cc1OCC -1.42%
C[C@H]1CN(CCc2ccccc2)C(=O)[C@@H]1CC(=O)NCc1ccccc1 -0.104%
CSc1nc(N)nc2c1ncn2CC(=O)N[C@H](C)c1cccc2ccccc12 6.71%
O=C(CCc1ccc(S(=O)(=O)NCc2ccccc2)cc1)NCc1ccc2c(c1)OCO2 -9.71%
COc1ccc(-c2nn(-c3ccccc3)cc2CNC(C)Cn2cncn2)c(F)c1 (configuration not stated) -7.39%
CC(=O)c1c(C(C)=O)c(C)n(-c2nc(-c3cccs3)c(C)s2)c1C -2.33%
CCOC(=O)c1sc(NC(=O)CSc2nnc(-c3ccc(OC)cc3)n2CCOC)nc1C 2.51%
CC1=C(C(=O)OC(C)C)C(c2ccccc2)NC(=S)N1C (configuration not stated) 0.616%
O=C(c1ccc(Cn2cc([N+](=O)[O-])cn2)o1)N1CCCCCC1 -10.9%
O=C(Nc1nnc(CCS(=O)(=O)c2ccc3ccccc3c2)s1)c1cccs1 3.02%
Cc1nnnn1/C(=C\c1ccccc1)C(=O)OCC(=O)NC(C)(C)C 5.43%
Cc1nc2c3cc(F)ccc3n(Cc3ccccc3)c2s1 -0.947%
O=C(Cc1ccccc1Cl)N1CCN(c2ccccn2)CC1 3.23%
O=C(O)CCCC(=O)Nc1ccc(C(=O)NCc2cccnc2)cc1 0.726%
COc1ccc(OC)c(/C=C/C(=O)Nc2cccc(S(=O)(=O)NC3=NCCCCC3)c2)c1 3.75%
COc1ccc(NC(=O)N(C)C[C@H]2Oc3c(NS(=O)(=O)c4cn(C)cn4)cccc3C(=O)N([C@H](C)CO)C[C@@H]2C)cc1 -8.93%
O=C(Nc1ccccc1)N1CCSCC1 -6.74%
C#CCOCCOCCOCCNc1nc(N2CCOCC2)nc(N2CCN(C(=O)[C@H](CCCN=C(N)N)n3cc(C(N)[C@@H](C)CC)nn3)CC2)n1 (some centres not stated) -0.0332%
Cc1ccc(C(=O)NCc2ccco2)cc1Br -11.6%
N#Cc1ccc(C23OCCN2CCn2nc4ccccc4c23)cc1 (configuration not stated) -0.564%
Cc1cccc(-n2c(SCC(=O)Nc3ccc4c(c3)OCO4)nnc2-c2ccoc2C)c1 -0.58%
CC(C)NC(=O)Nc1ccc2c(c1)C(=O)N([C@H](C)CO)C[C@H](C)[C@@H](CN(C)C(=O)Nc1ccccc1)O2 -1.79%
O=c1[nH]cc(N2CCCCCC2)c(=O)[nH]1 -6.05%
O=C1NCCN1CCNS(=O)(=O)c1ccccc1[N+](=O)[O-] -0.557%
O=C1c2sc3nc4c(c(=O)n3c2C(=O)N1c1ccccc1)CCC4 0.85%
O=c1[nH]c(S)nc2sc3c(c12)CCCC3 2.23%
CCOC(=O)c1c(C)[nH]c(C)c1S(=O)(=O)N(C)CC(=O)N(C)Cc1ccccc1 1.9%
CC(C)C[C@H](NC(=O)N1CCCCCC1)C(=O)O 0.718%
COc1cccc(CSc2nnc(C(F)(F)F)n2Cc2ccc(F)cc2)c1 -0.312%
O=C(COc1ccc(NC(=O)c2ccccc2)cc1)c1ccccc1 -2.8%
Cc1cc2c(cc1C)NC(CC(=O)NCc1ccccc1)C(=O)N2 (configuration not stated) 0.0832%
CCCCNC(=O)c1nn2cc(Br)cnc2c1Br -8.56%
COc1ccc(C(=O)NCc2cccnc2)cc1S(=O)(=O)N1CCOCC1 -1.08%
CS(=O)(=O)N(CC(=O)N1CCCCCC1)c1ccccc1 -5.65%
CC(=O)Nc1ccc(NC(=O)C2CCN(C(=O)c3cccs3)CC2)cc1 -8.37%
O=C(Nc1ccccc1)N(O)c1ccc(Cl)cc1 3.51%
C[C@H](CO)N1C[C@H](C)[C@@H](CN(C)S(=O)(=O)c2ccccc2)Oc2ccc(NS(=O)(=O)c3ccc(F)cc3)cc2C1=O -1.71%
CN1CCN(Cc2c(C#N)c3ccccc3n2C)CC1 -1.82%
COc1ccc(C2C(C#N)=C(N)Oc3c2sc2nc(C)cc(C)c32)cc1 (configuration not stated) 2.34%
CSc1ccccc1C(=O)Nc1ccc(C)c(C)c1 -14.9%
CN(C)c1ccc(N=Cc2nc(-c3ccccc3)oc2OC(=O)c2ccccc2)cc1 6.57%
Cn1c(=N)n(CC(O)c2ccccc2)c2ccccc21 (configuration not stated) 7.12%
Cn1c(=O)c(-c2ccccc2)nn2c3ccccc3nc12 -0.768%
O=C(Cn1nc(-c2ccc(Cl)cc2)ccc1=O)NCC1COCCO1 (configuration not stated) -1.43%
COc1ccc(N/C=C2/CCCCC2=O)cc1 1.06%
COC(=O)CN1C(=O)[C@H]2[C@@H](/C=C/c3ccccc3)N3C(=O)CN(Cc4ccccn4)C(=O)[C@@]3(Cc3ccccc3)[C@H]2C1=O -2.61%
Oc1ccc(-c2nc3ncccn3c2Nc2ccc3c(c2)OCO3)cc1 -0.774%
CCOC(=O)c1c(NC(=O)c2cc(-c3ccc(O)cc3)on2)sc(C(C)=O)c1C -4.51%
CCc1ccc(C(=O)CSc2nc3ccccc3c(=O)[nH]2)cc1 0.536%

Sorted by length of the SMILES (smallest number first): some entries from above
Activity change, negative = inhibition, inactive:
COCCCNC(=S)NNC(=O)c1ccccn1 6.83%
O=c1[nH]c(S)nc2sc3c(c12)CCCC3 2.23%
O=C(Cc1ccccc1Cl)N1CCN(c2ccccn2)CC1 3.23%
CCc1ccc(C(=O)CSc2nc3ccccc3c(=O)[nH]2)cc1 0.536%
Oc1ccc(-c2nc3ncccn3c2Nc2ccc3c(c2)OCO3)cc1 -0.774%
COc1ccc(C(=O)NCc2cccnc2)cc1S(=O)(=O)N1CCOCC1 -1.08%
CC(=O)Nc1ccc(NC(=O)C2CCN(C(=O)c3cccs3)CC2)cc1 -8.37%
CSc1nc(N)nc2c1ncn2CC(=O)N[C@H](C)c1cccc2ccccc12 6.71%
CC(=O)c1c(C(C)=O)c(C)n(-c2nc(-c3cccs3)c(C)s2)c1C -2.33%
CN(C)c1ccc(N=Cc2nc(-c3ccccc3)oc2OC(=O)c2ccccc2)cc1 6.57%
CCOC(=O)c1sc(NC(=O)CSc2nnc(-c3ccc(OC)cc3)n2CCOC)nc1C 2.51%
Cc1cccc(-n2c(SCC(=O)Nc3ccc4c(c3)OCO4)nnc2-c2ccoc2C)c1 -0.58%
CCOC(=O)c1c(C)[nH]c(C)c1S(=O)(=O)N(C)CC(=O)N(C)Cc1ccccc1 1.9%
CC(C)NC(=O)Nc1ccc2c(c1)C(=O)N([C@H](C)CO)C[C@H](C)[C@@H](CN(C)C(=O)Nc1ccccc1)O2 -1.79%
COc1ccc(NC(=O)N(C)C[C@H]2Oc3c(NS(=O)(=O)c4cn(C)cn4)cccc3C(=O)N([C@H](C)CO)C[C@@H]2C)cc1 -8.93%
COC(=O)CN1C(=O)[C@H]2[C@@H](/C=C/c3ccccc3)N3C(=O)CN(Cc4ccccn4)C(=O)[C@@]3(Cc3ccccc3)[C@H]2C1=O -2.61%
